Results are given in words; binding and its absence hold for the method and conditions named. In cells and extracts the contact can be indirect. Some binding calls cover weakened binding; strength is not graded here. Sequences can lack the tags named with a protein.
Target: Myc-HIF-1α (hypoxia-inducible factor 1 α) (UniProt Q16665)
Assay: co-IP; exogenous co-IP in 293T cells co-transfected with tagged UHRF1 and HIF-1α plasmids (whole or truncated), forward and reverse; 1000 µg lysate protein, 2 µg primary antibody overnight at 4 °C, Protein A/G beads, IgG as negative control

Amino acid sequences for entries named in this document (tags omitted).
UniProt Q16665: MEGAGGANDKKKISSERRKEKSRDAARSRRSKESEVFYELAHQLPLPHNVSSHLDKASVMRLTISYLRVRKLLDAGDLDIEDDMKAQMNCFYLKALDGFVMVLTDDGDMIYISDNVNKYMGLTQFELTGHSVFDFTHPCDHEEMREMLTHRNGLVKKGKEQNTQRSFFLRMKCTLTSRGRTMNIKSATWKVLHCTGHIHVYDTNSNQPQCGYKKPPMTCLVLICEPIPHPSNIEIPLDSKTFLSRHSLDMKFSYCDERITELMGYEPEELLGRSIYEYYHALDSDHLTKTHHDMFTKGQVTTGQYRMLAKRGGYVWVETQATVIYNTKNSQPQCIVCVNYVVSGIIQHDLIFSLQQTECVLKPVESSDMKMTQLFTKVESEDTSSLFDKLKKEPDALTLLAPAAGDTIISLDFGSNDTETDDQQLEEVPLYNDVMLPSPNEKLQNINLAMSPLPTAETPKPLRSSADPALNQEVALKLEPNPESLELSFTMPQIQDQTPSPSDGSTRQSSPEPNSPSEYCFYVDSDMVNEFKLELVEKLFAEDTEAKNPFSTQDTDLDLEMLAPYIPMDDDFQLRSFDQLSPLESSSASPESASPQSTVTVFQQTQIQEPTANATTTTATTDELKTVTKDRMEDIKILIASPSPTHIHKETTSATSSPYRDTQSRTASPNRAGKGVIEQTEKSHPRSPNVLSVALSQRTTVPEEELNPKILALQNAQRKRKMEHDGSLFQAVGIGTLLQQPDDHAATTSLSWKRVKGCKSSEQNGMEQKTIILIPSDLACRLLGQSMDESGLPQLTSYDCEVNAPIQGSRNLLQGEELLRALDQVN

B1: Flag-UHRF1 (Ubiquitin-like PHD and RING finger domain-containing protein 1) (protein, UniProt Q96T88 1-793)
chain: MWIQVRTMDGRQTHTVDSLSRLTKVEELRRKIQELFHVEPGLQRLFYRGKQMEDGHTLFDYEVRLNDTIQLLVRQSLVLPHSTKERDSELSDTDSGCCLGQSESDKSSTHGEAAAETDSRPADEDMWDETELGLYKVNEYVDARDTNMGAWFEAQVVRVTRKAPSRDEPCSSTSRPALEEDVIYHVKYDDYPENGVVQMNSRDVRARARTIIKWQDLEVGQVVMLNYNPDNPKERGFWYDAEISRKRETRTARELYANVVLGDDSLNDCRIIFVDEVFKIERPGEGSPMVDNPMRRKSGPSCKHCKDDVNRLCRVCACHLCGGRQDPDKQLMCDECDMAFHIYCLDPPLSSVPSEDEWYCPECRNDASEVVLAGERLRESKKKAKMASATSSSQRDWGKGMACVGRTKECTIVPSNHYGPIPGIPVGTMWRFRVQVSESGVHRPHVAGIHGRSNDGAYSLVLAGGYEDDVDHGNFFTYTGSGGRDLSGNKRTAEQSCDQKLTNTNRALALNCFAPINDQEGAEAKDWRSGKPVRVVRNVKGGKNSKYAPAEGNRYDGIYKVVKYWPEKGKSGFLVWRYLLRRDDDEPGPWTKEGKDRIKKLGLTMQYPEGYLEALANREREKENSKREEEEQQEGGFASPRTGKGKWKRKSAGGGPSRAGSPRRTSKKTKVEPYSLTAQQSSLIREDKSNAKLWNEVLASLKDRPASGSPFQLFLSKVEETFQCICCQELVFRPITTVCQHNVCKDCLDRSFRAQVFSCPACRYDLGRSYAMQVNQPLQTVLNQLFPGYGNGR
  binding: binds
